At least one peptide structure holds a part that was inferred or is arguable (an end, a ring closure or a residue). Where a SMILES comes first, the peptide text is derived from it.
Tests used:
[1] = test system: Primary human keratinocytes; assay: Mitogenesis assay (3H-thymidine incorporation, DNA synthesis) in keratinocytes; type: cell-based; details: 24 h
Method: FIG. 1 is a bar graph which represents the effect of various uPA peptides on DNA synthesis in keratinocytes. Various concentrations of GFD peptides were tested in order to compare the mitogenic activity. After 24 h incubation with a peptide and 3H-thymidine, incorporated radioactivity was measured as described herein. Five concentrations were used for each peptide. For a given peptide the uppermost bar of the five represents 0.1 μM, the next lower bar 0.33 μM, the next lower bar 1 μM, the next lower bar 3.3 μM, and the lowest bar, 10 μM.
Mitogenesis Assay The effect of a peptide on mitogenesis was determined as a function of DNA synthesis as follows. Peptides (in phosphate buffered saline (PBS)) were added to the monolayers (grown as described herein) to a final concentration of either 0.1 μM, 0.33 μM, 1.0 μM, 3.3 μM, or 10 μM. […] The lysed cells were then transferred to a nylon filter (Amersham, Arlington Heights, Ill.), Beta plate scintillation fluid was added (LKB), and radioactivity was measured using a Wallac 1205 beta plate counter. Control samples, incubated in the presence of phosphate-buffered saline (PBS) and ^3 H-thymidine gave control levels of radioactivity of approximately 400 cpm. […]

Keratinocytes = assay: 6-mer peptide with other growth factors: 3H-thymidine incorporation in various growth media; type: cell-based, human; details: 24 h

Which “mitogenic activity (3H-thymidine incorporation)” value ([1]; concentration of 10 μM) does the source give for `NCCCC[C@H](NC(=O)[C@H](CC(N)=O)NC(=O)[C@@H](N)CO)C(=O)N[C@@H](Cc1ccc(O)cc1)C(=O)N[C@@H](Cc1ccccc1)C(=O)N[C@@H](CO)C(=O)O` [6-mer, SNKYFS] (H-SNKYFS-OH) here?
The value was “significant stimulation”.

And the “mitogenic activity (3H-thymidine incorporation)” value ([1]; concentrations up to 3.3 μM)?
The value was “did not demonstrate any measurable activity”.

What about the “3H-thymidine uptake (FIG. 2)” value (Keratinocytes; complete keratinocyte growth medium (KGM: BPE, insulin, EGF, hydrocortisone)) of the same molecule?
Its value is “stimulated ^3 H-thymidine uptake greatly”.

And the “effect in combination with growth factors (FIG. 2)” value (Keratinocytes; media with any growth factors tested (insulin, EGF, BPE))?
The value was “additive effect”.
